# Test results taken from PubChem BioAssay AID1671190 (National Center for Advancing Translational Sciences (NCATS), 2021).
# Protein sequences, listed by entry. Tags and fused reporters are not part of them.
# UniProt P18054, whole entry, looked up: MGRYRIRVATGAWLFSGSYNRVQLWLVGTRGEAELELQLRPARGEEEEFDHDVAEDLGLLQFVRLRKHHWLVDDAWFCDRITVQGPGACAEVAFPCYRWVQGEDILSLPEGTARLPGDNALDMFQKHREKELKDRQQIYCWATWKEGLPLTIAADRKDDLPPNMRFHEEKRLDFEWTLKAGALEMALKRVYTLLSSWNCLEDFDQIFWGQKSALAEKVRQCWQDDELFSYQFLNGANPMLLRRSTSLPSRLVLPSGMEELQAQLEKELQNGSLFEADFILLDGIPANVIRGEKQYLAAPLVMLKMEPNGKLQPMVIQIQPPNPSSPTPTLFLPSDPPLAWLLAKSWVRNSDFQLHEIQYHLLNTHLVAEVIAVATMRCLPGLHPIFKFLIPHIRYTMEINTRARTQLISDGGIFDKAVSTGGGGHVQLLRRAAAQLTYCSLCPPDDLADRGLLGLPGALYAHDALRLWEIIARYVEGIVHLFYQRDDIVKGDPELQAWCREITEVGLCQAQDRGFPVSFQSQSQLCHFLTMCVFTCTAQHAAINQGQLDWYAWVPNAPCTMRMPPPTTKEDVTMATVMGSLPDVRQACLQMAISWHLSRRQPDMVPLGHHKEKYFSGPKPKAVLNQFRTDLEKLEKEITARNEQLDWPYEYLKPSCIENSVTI
# In all, about 580,000 compounds went through this assay and about 6,100 (1.1%) were called active. Inconclusive means that the source gave no clear call. Such entries were picked first, then a sample of the others. Calls follow the shape of the dose curve; as a rule, active = well fitted inhibition curve with a large enough effect; inconclusive = small, poorly fitted or top-dose-only effect, or another doubt; inactive = no such curve, though single readings can be large or run the other way. Where the call is inconclusive, the potency comes from a doubtful curve fit.
# Biological target: Polyunsaturated fatty acid lipoxygenase ALOX12 (Homo sapiens) (UniProt P18054)
# Experiment: Primary qHTS assay for inhibitors of human arachidonate 12S-lipoxygenase (ALOX12): Round 2
# Conditions: purified 12hLO, xylenol orange hydroperoxide absorbance; activity change, negative = inhibition: at 108 µM (top of the series) unless noted
# Method in brief: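 Purified human 12hLO at 150 nM in 25 mM Hepes, 0.01% Triton X-100, pH 7.0, preincubated 15 min at room temperature with compound. Reaction started with 40 uM arachidonic acid, 30 min at room temperature. Hydroperoxide measured by Fe-xylenol orange, 573/405 nm absorbance ratio.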
# % is scaled to controls: 0 for no effect and ±100 for the full control effect; potency is read from the fitted curve at half-maximal effect.
Compound,"activity change, negative = inhibition",Potency
Cc1cccc2cc(CN(Cc3ccc(F)cc3)C(=O)N(C)C)c3nnnn3c12,inactive: 0%,–
COc1ccc(-c2c(NC(=O)c3cccs3)oc3ccccc3c2=O)cc1,inactive: -1.84%,–
CCN(Cc1ccccc1)C(=O)Cn1c(=O)cc(C)c2c(C)nn(-c3cccc(F)c3)c21,inactive: -29.7%,–
Cc1oc(-c2ccc(Cl)cc2)nc1CS(=O)CC(=O)NCc1ccccc1 (stereo not given),–,inactive
CCOC(=O)C1=C(C)N(C)C(=O)N(C)C1c1c(F)cccc1Cl (stereo not given),inactive: -28.2%,–
O=C(CSc1oc(-c2ccc(F)cc2)nc1S(=O)(=O)c1ccccc1)c1ccc(Cl)cc1,–,"inconclusive: 126 µM [inhibitor, single point]"
CCc1nc(-c2c3n(c(=O)n(CC(=O)Nc4ccc(C)c(C)c4)c2=O)CCCC3)no1,–,"inconclusive: 79.4 µM [inhibitor, single point]"
CCOc1ccc(-c2nnc(SCC(=O)NC3CCCCC3)nc2-c2ccc(OCC)c(OC)c2)cc1OC,inactive: 7.7%,–
CCOC(=O)c1sc(NC(=O)/C=C/c2cnn(CC)c2C)c(C(=O)OCC)c1C,–,"inconclusive: 31.6 µM [inhibitor, partial curve]"
C#CCN(C[C@@H]1[C@@H](OC(=O)Nc2cccs2)[C@@H](OC(=O)Nc2cccs2)C[C@H](C(=O)OC)[C@@H]1C(=O)OC)S(=O)(=O)c1ccc(C)cc1,–,"inconclusive: 0.316 µM [inhibitor, full curve, poor fit]"
O=C(c1cn[nH]c1-c1ccc(Cl)cc1)N1CCC2(CC1)OCCO2,inactive: 9.6%,–
COC(=O)C1=C(C)N(Cc2ccccc2)C(=S)N[C@H]1c1cccc(C(F)(F)F)c1,–,"inconclusive: 39.8 µM [inhibitor, partial curve, poor fit]"
COc1ccc(C(=O)NCc2nnc(SCC(=O)NC3=NCCS3)n2C)cc1,–,"inconclusive: 50.1 µM [inhibitor, partial curve, poor fit]"
CCOc1ccccc1CNC(=O)CN1C(=O)c2cccnc2Oc2ccc(Cl)cc21,–,"inconclusive: 141 µM [inhibitor, partial curve, poor fit]"
COc1cccc(C2=NO[C@@H]3C(=O)N(Cc4ccccc4)C(=O)[C@H]23)c1OC,–,"inconclusive: 141 µM [inhibitor, partial curve, poor fit]"
Cc1nn(-c2ccc(C(C)(C)C)cc2)c(C)c1[C@@H]1C=C[C@@H](NC(=O)CC(C)(C)CC(=O)O)C1,–,"inconclusive: 31.6 µM [inhibitor, partial curve]"
O=C(Cc1cccs1)N(c1ccc(F)cc1)C1(C(=O)NC2CCCCC2)CCCC1,inactive: -19.2%,–
Cc1cc(C(=O)Nc2cccc(S(=O)(=O)N3CCOCC3)c2)c2ccccc2n1,inactive: 0%,–
CCN1CCN(C(=O)c2cc(-c3ccco3)nc3ccccc23)CC1,–,"inconclusive: 31.6 µM [inhibitor, partial curve, poor fit]"
Cc1nn(CC(O)CN2c3ccccc3Sc3ccccc32)c(C)c1Br (stereo not given),inactive: 3.39%,–
O=C(N/N=C/c1ccccc1)c1ccc(-c2ccccc2)cc1,inactive: 7.59%,–
O=C(NN=Cc1ccc(Cl)cc1Cl)c1ccccc1,–,"inconclusive: 50.1 µM [inhibitor, partial curve, poor fit]"
Cc1cccc(NCCC(=O)c2ccc([N+](=O)[O-])cc2)c1C,–,"inconclusive: 112 µM [inhibitor, single point]"

Compound,"activity change, negative = inhibition",Potency
O=C(Nc1ccccc1)c1ccc(Cl)c(S(=O)(=O)Nc2ccccc2)c1,inactive: -6.46%,–
O=C(CC1C=CCC1)N(Cc1ccncc1)C1CC1 (stereo not given),inactive: 0.517%,–
CC1CCC[C@@]2(CCc3cc4c5c(c(=O)oc4cc3O2)CCC5)C1 (stereo not given in full),inactive: -1.37%,–
CN(C)C=Nc1ccccc1I,inactive: 14.4%,–
CCNC(=S)Nc1ccc(Cl)c([N+](=O)[O-])c1,–,"inconclusive: 50.1 µM [inhibitor, partial curve, poor fit]"
Cn1c(=O)c2nc(SCC(=O)O)n(Cc3ccccc3)c2n(C)c1=O,inactive: -8.41%,–
COC(=O)C1CCN(Cc2cc(=O)oc3cc(C)c(Cl)cc23)CC1,–,"inconclusive: 35.5 µM [inhibitor, partial curve, poor fit]"
Cc1nc(-c2ccc(C)c(S(=O)(=O)N3CCCCC3)c2)cs1,inactive: -3.93%,–
Cc1ccc(S(=O)(=O)N2CCC3(CC2)SCC(=O)N3Cc2ccco2)cc1,–,active: 14.1 µM
O=c1nc2n(-c3cccc(Cl)c3)c3cccc(Cl)c3cc-2c(=O)[nH]1,–,"inconclusive: 50.1 µM [inhibitor, partial curve, poor fit]"
CCOC(=O)C(=O)NNc1ccccc1C,–,"inconclusive: 12.6 µM [inhibitor, partial curve, poor fit]"
COc1ncc(-c2n[nH]c3c2CC(=O)N(CCOc2ccccc2)C3)cn1,–,"inconclusive: 14.1 µM [inhibitor, full curve, poor fit]"
Cc1ccc(C(=O)NCC(=O)OCc2nnc(-c3ccc([N+](=O)[O-])cc3)o2)s1,inactive: 224%,–
COCCNC(=O)[C@@H]1C[C@H](Oc2ccccc2)CN1C(=O)c1ccc2ccccc2n1,inactive: 44.7%,–
Cc1noc(C)c1S(=O)(=O)N1CCCC(Cc2noc(-c3ccncc3)n2)C1 (stereo not given),inactive: 18.5%,–
Cc1ccc(NC(=O)Cn2c(=O)c3c(C)cc(C)nc3n(-c3ccccc3)c2=O)c(Cl)c1,inactive: -24.2%,–
O=C1C2C3CCCC3=C3CCCC3C2C(=O)N1c1cccc(Cl)c1 (stereo not given),–,"inconclusive: 25.1 µM [inhibitor, partial curve, poor fit]"
Cc1ccc(C2=NCCn3nc4cc([N+](=O)[O-])ccc4c32)cc1,–,"inconclusive: 79.4 µM [inhibitor, partial curve, poor fit]"
O=C(CC1C[C@H](C(=O)N2CCOCC2)[C@@]2(CCC3CCCC3)c3[nH]c4ccccc4c3CCN2C1=O)NCc1ccco1 (stereo not given in full),–,"inconclusive: 5.01 µM [inhibitor, full curve, poor fit]"
Nc1cc2c(cc1N)-c1ccccc1C2,–,"inconclusive: 44.7 µM [inhibitor, partial curve, poor fit]"
O=C(COC(=O)c1cnc2ccccc2n1)NC1CCCCC1,inactive: -14.2%,–
CCS(=O)(=O)N1CCc2cc(C(=O)Nc3cc(C)cc(C)c3)ccc21,–,"inconclusive: 0.316 µM [inhibitor, full curve, poor fit]"

# Another view of some results above:
Compound	activity change, negative = inhibition	Potency
O=C(c1cn[nH]c1-c1ccc(Cl)cc1)N1CCC2(CC1)OCCO2	inactive: 9.6%	–
COC(=O)C1=C(C)N(Cc2ccccc2)C(=S)N[C@H]1c1cccc(C(F)(F)F)c1	–	inconclusive: 39.8 µM [inhibitor, partial curve, poor fit]
COc1ccc(C(=O)NCc2nnc(SCC(=O)NC3=NCCS3)n2C)cc1	–	inconclusive: 50.1 µM [inhibitor, partial curve, poor fit]
